Article PMC11116421
Results are given in words; binding and its absence hold for the method and conditions named. In cells and extracts the contact can be indirect. Some results given as binding are weak or reduced against the parent protein; the word gives no strength.

Amino acid sequences for entries named in this document (tags omitted).
UniProt Q501J6: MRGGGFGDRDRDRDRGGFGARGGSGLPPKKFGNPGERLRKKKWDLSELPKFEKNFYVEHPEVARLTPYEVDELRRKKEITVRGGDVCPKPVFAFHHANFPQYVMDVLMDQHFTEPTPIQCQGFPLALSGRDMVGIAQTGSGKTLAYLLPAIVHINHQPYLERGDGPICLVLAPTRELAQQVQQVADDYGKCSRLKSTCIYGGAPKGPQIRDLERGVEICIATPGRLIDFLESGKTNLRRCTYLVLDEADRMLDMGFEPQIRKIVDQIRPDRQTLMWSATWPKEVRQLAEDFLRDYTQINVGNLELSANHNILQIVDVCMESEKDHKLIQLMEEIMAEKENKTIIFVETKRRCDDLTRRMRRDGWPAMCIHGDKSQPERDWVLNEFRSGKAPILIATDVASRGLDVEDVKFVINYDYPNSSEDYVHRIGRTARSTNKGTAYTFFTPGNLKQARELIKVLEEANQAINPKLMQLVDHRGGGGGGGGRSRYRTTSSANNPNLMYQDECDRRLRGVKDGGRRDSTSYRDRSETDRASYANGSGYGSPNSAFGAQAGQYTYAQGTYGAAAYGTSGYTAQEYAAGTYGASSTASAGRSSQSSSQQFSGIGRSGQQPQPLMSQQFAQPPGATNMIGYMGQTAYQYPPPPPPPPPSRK

Target: DEAD-box helicase 17 (DDX17) (mouse (endogenous in NMVMs)) (UniProt Q501J6)
Test: co-IP; Pierce Classic IP Kit; NMVMs (control and Ddx17-cKO), 5 x 10^6 cells per IP; precipitated with DDX17 antibody and, in turn, with BCL6 antibody; SDS-PAGE and blot

binding: binds
Substance: B-cell lymphoma 6 (BCL6) (from UniProt P41183 1-707)
